According to patent US12516015B2 (AMALIVE LIMITED, priority 2009, dated 2026):
Where two headings read alike, the source gives them in different places.

Compound: NCCC[C@H](N)C(=O)O.O=C(O)Cc1ccccc1 [L-ornithine phenyl acetate]
- Results (crystalline form of precipitate) (Test 292, Anti-Solvent (IPA) Addition Ambient Temperature, solvent EtOH: 3% H20): No Solid
- Results (crystalline form of precipitate) (Test 293, Anti-Solvent (IPA) Addition (4° C.), solvent EtOH: 3% H20): No Solid
- Results (crystalline form of precipitate) (Test 294, Anti-Solvent (IPA) Addition (−21° C.), solvent EtOH: 3% H20): No Solid
- Results (crystalline form of precipitate) (Test 295, Anti-Solvent (Ethanol) Addition Ambient Temperature, solvent EtOH: 3% H20): No Solid
- Results (crystalline form of precipitate) (Test 296, Anti-Solvent (Ethanol) Addition (4° C.), solvent EtOH: 3% H20): No Solid
- Results (crystalline form of precipitate) (Test 297, Anti-Solvent (Ethanol) Addition (−21° C.), solvent EtOH: 3% H20): No Solid
- Results (crystalline form of precipitate) (Test 302, Anti-Solvent (IPA) Addition Elevated Temperature, solvent EtOH: 5% H20): No Solid
- Results (crystalline form of precipitate) (Test 303, Anti-Solvent (IPA) Addition Ambient Temperature, solvent EtOH: 5% H20): Form II
- Results (crystalline form of precipitate) (Test 304, Anti-Solvent (IPA) Addition (4° C.), solvent EtOH: 5% H20): No Solid
- Results (crystalline form of precipitate) (Test 305, Anti-Solvent (IPA) Addition (−21° C.), solvent EtOH: 5% H20): No Solid
- Results (crystalline form of precipitate) (Test 306, Anti-Solvent (Ethanol) Addition Ambient Temperature, solvent EtOH: 5% H20): No Solid
- Results (crystalline form of precipitate) (Test 307, Anti-Solvent (Ethanol) Addition (4° C.), solvent EtOH: 5% H20): No Solid
- Results (crystalline form of precipitate) (Test 308, Anti-Solvent (Ethanol) Addition (−21° C.), solvent EtOH: 5% H20): No Solid
- Results (crystalline form of precipitate) (Test 313, Anti-Solvent (IPA) Addition Elevated Temperature, solvent IPA: 1% H20): No Solid
- Results (crystalline form of precipitate) (Test 314, Anti-Solvent (IPA) Addition Ambient Temperature, solvent IPA: 1% H20): No Solid
- Results (crystalline form of precipitate) (Test 315, Anti-Solvent (IPA) Addition (4° C.), solvent IPA: 1% H20): No Solid
- Results (crystalline form of precipitate) (Test 316, Anti-Solvent (IPA) Addition (−21° C.), solvent IPA: 1% H20): No Solid
- Results (crystalline form of precipitate) (Test 317, Anti-Solvent (Ethanol) Addition Ambient Temperature, solvent IPA: 1%H20): No Solid
- Results (crystalline form of precipitate) (Test 318, Anti-Solvent (Ethanol) Addition (4° C.), solvent IPA: 1% H20): No Solid
- Results (crystalline form of precipitate) (Test 319, Anti-Solvent (Ethanol) Addition (−21° C.), solvent IPA: 1% H20): No Solid
- Results (crystalline form of precipitate) (Test 324, Anti-Solvent (IPA) Addition Elevated Temperature, solvent IPA: 3% H20): No Solid
- Results (crystalline form of precipitate) (Test 325, Anti-Solvent (IPA) Addition Ambient Temperature, solvent IPA: 3% H20): No Solid
- Results (crystalline form of precipitate) (Test 326, Anti-Solvent (IPA) Addition (4° C.), solvent IPA: 3% H20): No Solid
- Results (crystalline form of precipitate) (Test 327, Anti-Solvent (IPA) Addition (−21° C.), solvent IPA: 3% H20): No Solid
- Results (crystalline form of precipitate) (Test 328, Anti-Solvent (Ethanol) Addition Ambient Temperature, solvent IPA: 3% H20): No Solid
- Results (crystalline form of precipitate) (Test 329, Anti-Solvent (Ethanol) Addition (4° C.), solvent IPA: 3% H20): No Solid
- Results (crystalline form of precipitate) (Test 330, Anti-Solvent (Ethanol) Addition (−21° C.), solvent IPA: 3% H20): No Solid
- Results (crystalline form of precipitate) (Test 335, Anti-Solvent (IPA) Addition Elevated Temperature, solvent IPA: 5% H20): No Solid
- Results (crystalline form of precipitate) (Test 336, Anti-Solvent (IPA) Addition Ambient Temperature, solvent IPA: 5% H20): No Solid
- Results (crystalline form of precipitate) (Test 337, Anti-Solvent (IPA) Addition (4° C.), solvent IPA: 5% H20): No Solid
- Results (crystalline form of precipitate) (Test 338, Anti-Solvent (IPA) Addition (−21° C.), solvent IPA: 5% H20): No Solid
- Results (crystalline form of precipitate) (Test 339, Anti-Solvent (Ethanol) Addition Ambient Temperature, solvent IPA: 5% H20): No Solid
- Results (crystalline form of precipitate) (Test 340, Anti-Solvent (Ethanol) Addition (4° C.), solvent IPA: 5% H20): No Solid
- Results (crystalline form of precipitate) (Test 341, Anti-Solvent (Ethanol) Addition (−21° C.), solvent IPA: 5% H20): No Solid
- Results (crystalline form of precipitate) (Test 346, Anti-Solvent (IPA) Addition Elevated Temperature, solvent ACN: 1% H20): No Solid
- Results (crystalline form of precipitate) (Test 347, Anti-Solvent (IPA) Addition Ambient Temperature, solvent ACN: 1% H20): No Solid
- Results (crystalline form of precipitate) (Test 348, Anti-Solvent (IPA) Addition (4° C.), solvent ACN: 1% H20): No Solid
- Results (crystalline form of precipitate) (Test 349, Anti-Solvent (IPA) Addition (−21° C.), solvent ACN: 1% H20): No Solid
- Results (crystalline form of precipitate) (Test 350, Anti-Solvent (Ethanol) Addition Ambient Temperature, solvent ACN: 1% H20): No Solid
- Results (crystalline form of precipitate) (Test 351, Anti-Solvent (Ethanol) Addition (4° C.), solvent ACN: 1% H20): No Solid
- Results (crystalline form of precipitate) (Test 352, Anti-Solvent (Ethanol) Addition (−21° C.), solvent ACN: 1% H20): No Solid
- Results (crystalline form of precipitate) (Test 357, Anti-Solvent (IPA) Addition Elevated Temperature, solvent ACN: 6% H20): No Solid
- Results (crystalline form of precipitate) (Test 358, Anti-Solvent (IPA) Addition Ambient Temperature, solvent ACN: 6% H20): No Solid
- Results (crystalline form of precipitate) (Test 359, Anti-Solvent (IPA) Addition (4° C.), solvent ACN: 6% H20): No Solid
- Results (crystalline form of precipitate) (Test 360, Anti-Solvent (IPA) Addition (−21° C.), solvent ACN: 6% H20): No Solid
- Results (crystalline form of precipitate) (Test 361, Anti-Solvent (Ethanol) Addition Ambient Temperature, solvent ACN: 6% H20): No Solid
- Results (crystalline form of precipitate) (Test 362, Anti-Solvent (Ethanol) Addition (4° C.), solvent ACN: 6% H20): No Solid
- Results (crystalline form of precipitate) (Test 363, Anti-Solvent (Ethanol) Addition (−21° C.), solvent ACN: 6% H20): No Solid
- Results (crystalline form of precipitate) (Test 368, Anti-Solvent (IPA) Addition Elevated Temperature, solvent ACN: 12% H20): No Solid
- Results (crystalline form of precipitate) (Test 369, Anti-Solvent (IPA) Addition Ambient Temperature, solvent ACN: 12% H20): Form II
- Results (crystalline form of precipitate) (Test 370, Anti-Solvent (IPA) Addition (4° C.), solvent ACN: 12% H20): No Solid
- Results (crystalline form of precipitate) (Test 371, Anti-Solvent (IPA) Addition (−21° C.), solvent ACN: 12% H20): Form II
- Results (crystalline form of precipitate) (Test 372, Anti-Solvent (Ethanol) Addition Ambient Temperature, solvent ACN: 12% H20): No Solid
- Results (crystalline form of precipitate) (Test 373, Anti-Solvent (Ethanol) Addition (4° C.), solvent ACN: 12% H20): No Solid
- Results (crystalline form of precipitate) (Test 374, Anti-Solvent (Ethanol) Addition (−21° C.), solvent ACN: 12% H20): No Solid
- Results (crystalline form of precipitate) (Test 379, Anti-Solvent (IPA) Addition Elevated Temperature, solvent DMF: 5% H20): No Solid
- Results (crystalline form of precipitate) (Test 380, Anti-Solvent (IPA) Addition Ambient Temperature, solvent DMF: 5% H20): No Solid
- Results (crystalline form of precipitate) (Test 381, Anti-Solvent (IPA) Addition (4° C.), solvent DMF: 5% H20): No Solid
- Results (crystalline form of precipitate) (Test 382, Anti-Solvent (IPA) Addition (−21° C.), solvent DMF: 5% H20): No Solid
- Results (crystalline form of precipitate) (Test 383, Anti-Solvent (Ethanol) Addition Ambient Temperature, solvent DMF: 5% H20): No Solid
- Results (crystalline form of precipitate) (Test 384, Anti-Solvent (Ethanol) Addition (4° C.), solvent DMF: 5% H20): No Solid
- Results (crystalline form of precipitate) (Test 385, Anti-Solvent (Ethanol) Addition (−21° C.), solvent DMF: 5% H20): No Solid
- Results (crystalline form of precipitate) (Test 390, Anti-Solvent (IPA) Addition Elevated Temperature, solvent DMF: 15% H20): No Solid
- Results (crystalline form of precipitate) (Test 391, Anti-Solvent (IPA) Addition Ambient Temperature, solvent DMF: 15% H20): No Solid
- Results (crystalline form of precipitate) (Test 392, Anti-Solvent (IPA) Addition (4° C.), solvent DMF: 15% H20): No Solid
- Results (crystalline form of precipitate) (Test 393, Anti-Solvent (IPA) Addition (−21° C.), solvent DMF: 15% H20): No Solid
- Results (crystalline form of precipitate) (Test 394, Anti-Solvent (Ethanol) Addition Ambient Temperature, solvent DMF: 15% H20): No Solid
- Results (crystalline form of precipitate) (Test 395, Anti-Solvent (Ethanol) Addition (4° C.), solvent DMF: 15% H20): No Solid
- Results (crystalline form of precipitate) (Test 396, Anti-Solvent (Ethanol) Addition (−21° C.), solvent DMF: 15% H20): No Solid
- Results (crystalline form of precipitate) (Test 401, Anti-Solvent (IPA) Addition Elevated Temperature, solvent DMF: 30% H20): Form II
- Results (crystalline form of precipitate) (Test 402, Anti-Solvent (IPA) Addition Ambient Temperature, solvent DMF: 30% H20): Form II
- Results (crystalline form of precipitate) (Test 403, Anti-Solvent (IPA) Addition (4° C.), DMF: 30% H20): Form II
- Results (crystalline form of precipitate) (Test 404, Anti-Solvent (IPA) Addition (−21° C.), DMF: 30% H20): Form II
- Results (crystalline form of precipitate) (Test 405, Anti-Solvent (Ethanol) Addition Ambient Temperature, DMF: 30% H20): Form II
- Results (crystalline form of precipitate) (Test 406, Anti-Solvent (Ethanol) Addition (4° C.), DMF: 30% H20): No Solid
- Results (crystalline form of precipitate) (Test 407, Anti-Solvent (Ethanol) Addition (−21° C.), DMF: 30% H20): Form II
- Results (crystalline form of precipitate) (Test 412, Anti-Solvent (IPA) Addition Elevated Temperature, 1,4-dioxane: 1% H20): No Solid
- Results (crystalline form of precipitate) (Test 413, Anti-Solvent (IPA) Addition Ambient Temperature, 1,4-dioxane: 1% H20): No Solid
- Results (crystalline form of precipitate) (Test 414, Anti-Solvent (IPA) Addition (4° C.), 1,4-dioxane: 1% H20): No Solid
- Results (crystalline form of precipitate) (Test 415, Anti-Solvent (IPA) Addition (−21° C.), 1,4-dioxane: 1% H20): No Solid
- Results (crystalline form of precipitate) (Test 416, Anti-Solvent (Ethanol) Addition Ambient Temperature, 1,4-dioxane: 1% H20): No Solid
- Results (crystalline form of precipitate) (Test 417, Anti-Solvent (Ethanol) Addition (4° C.), 1,4-dioxane: 1% H20): No Solid
- Results (crystalline form of precipitate) (Test 418, Anti-Solvent (Ethanol) Addition (−21° C.), 1,4-dioxane: 1% H20): No Solid
- Results (crystalline form of precipitate) (Test 423, Anti-Solvent (IPA) Addition Elevated Temperature, 1,4-dioxane: 3% H20): No Solid
- Results (crystalline form of precipitate) (Test 424, Anti-Solvent (IPA) Addition Ambient Temperature, 1,4-dioxane: 3% H20): No Solid
- Results (crystalline form of precipitate) (Test 425, Anti-Solvent (IPA) Addition (4° C.), 1,4-dioxane: 3% H20): No Solid
- Results (crystalline form of precipitate) (Test 426, Anti-Solvent (IPA) Addition (−21° C.), 1,4-dioxane: 3% H20): No Solid
- Results (crystalline form of precipitate) (Test 427, Anti-Solvent (Ethanol) Addition Ambient Temperature, 1,4-dioxane: 3% H20): No Solid
- Results (crystalline form of precipitate) (Test 428, Anti-Solvent (Ethanol) Addition (4° C.), 1,4-dioxane: 3% H20): No Solid
- Results (crystalline form of precipitate) (Test 429, Anti-Solvent (Ethanol) Addition (−21° C.), 1,4-dioxane: 3% H20): No Solid
- Results (crystalline form of precipitate) (Test 434, Anti-Solvent (IPA) Addition Elevated Temperature, 1,4-dioxane: 10% H20): No Solid
- Results (crystalline form of precipitate) (Test 435, Anti-Solvent (IPA) Addition Ambient Temperature, 1,4-dioxane: 10% H20): No Solid
